From ChEMBL document CHEMBL1914305, “Synthesis and structure-activity evaluation of isatin-β-thiosemicarbazones with improved selective activity toward multidrug-resistant cells expressing P-glycoprotein” (J Med Chem, 2011)

Tests used:
MDA-MB-231 [1] = assay: Cytotoxicity against human MDA-MB-231 cells after 72 hrs by MTT assay; assay type: functional, cell-based; details: MDA-MB-231, 72 h
How it was run: (§1)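 Lines grown in RPMI with 10% FBS and 2 mM L-glutamine. MTT assay: 4000 cells/well attached 24 h before serially diluted drug, then 72 h exposure at 37 °C, 5% CO2. MTT in IMDM 4 h, lysis in acidified ethanol 15 min, absorbance 570 nm minus 690 nm. IC50 is the concentration halving untreated absorbance. Three independent experiments, each in triplicate.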

MDA-MB-231 [2] = assay: Cytotoxicity against human MDA-MB-231 cells selected at 100 ug/ml vinblastine after 72 hrs by MTT assay; assay type: functional, cell-based; details: MDA-MB-231, 72 h; how it was run: as §1

## COc1cccc2c1C(=O)c1c(O)c3c(c(O)c1C2=O)C[C@@](O)(C(=O)CO)C[C@@H]3O[C@H]1C[C@H](N)[C@H](O)[C@H](C)O1 [DOXORUBICIN]
MDA-MB-231 [1]
  IC50: 390 nM
MDA-MB-231 [2]
  IC50: 3.06 µM
